According to PMC3702609:
These are yes or no findings as the source states them, for the method shown. In cells and extracts the contact can be indirect. Binding calls can cover weak binding; strength is not graded here. For some assays here: Where a sequence is shown, tags or fusion partners need not be part of it.

Chains of the proteins cited; added tags and fusions are not shown. Lines headed by an entry give the natural chain unless they say otherwise; changes in a name come on top.
UniProt P22317: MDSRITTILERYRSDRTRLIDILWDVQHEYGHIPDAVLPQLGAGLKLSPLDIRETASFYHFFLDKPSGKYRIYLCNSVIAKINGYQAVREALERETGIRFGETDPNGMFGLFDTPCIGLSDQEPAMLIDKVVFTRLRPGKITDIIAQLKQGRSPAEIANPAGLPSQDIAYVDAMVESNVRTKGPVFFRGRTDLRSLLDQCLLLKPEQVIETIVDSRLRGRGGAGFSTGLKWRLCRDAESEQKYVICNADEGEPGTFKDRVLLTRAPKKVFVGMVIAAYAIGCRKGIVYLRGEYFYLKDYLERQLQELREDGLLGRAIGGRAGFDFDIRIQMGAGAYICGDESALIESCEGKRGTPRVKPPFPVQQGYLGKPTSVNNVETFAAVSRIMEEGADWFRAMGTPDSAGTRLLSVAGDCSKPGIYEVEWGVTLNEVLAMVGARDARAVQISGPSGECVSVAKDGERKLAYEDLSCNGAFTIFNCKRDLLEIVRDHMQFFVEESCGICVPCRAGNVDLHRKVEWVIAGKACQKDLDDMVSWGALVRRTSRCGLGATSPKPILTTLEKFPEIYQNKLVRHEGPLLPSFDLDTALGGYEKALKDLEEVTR
UniProt P22320: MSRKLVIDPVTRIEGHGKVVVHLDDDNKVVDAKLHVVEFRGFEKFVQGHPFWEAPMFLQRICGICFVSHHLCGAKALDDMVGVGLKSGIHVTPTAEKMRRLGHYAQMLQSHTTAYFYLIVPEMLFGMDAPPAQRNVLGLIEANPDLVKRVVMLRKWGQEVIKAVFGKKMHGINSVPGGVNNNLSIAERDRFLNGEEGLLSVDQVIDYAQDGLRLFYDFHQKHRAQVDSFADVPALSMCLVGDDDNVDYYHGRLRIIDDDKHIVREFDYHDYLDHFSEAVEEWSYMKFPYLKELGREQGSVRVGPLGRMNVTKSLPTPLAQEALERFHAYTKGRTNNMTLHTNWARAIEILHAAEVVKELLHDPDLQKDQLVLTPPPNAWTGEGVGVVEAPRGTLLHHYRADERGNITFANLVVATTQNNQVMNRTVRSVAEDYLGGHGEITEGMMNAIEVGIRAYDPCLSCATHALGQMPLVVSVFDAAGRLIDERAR

Columns and labels:
[1] = molecular target: HoxF, diaphorase large subunit of the NAD+-reducing soluble [NiFe]-hydrogenase (SH), N-terminally StrepII-tagged (Cupriavidus necator H16) (UniProt P22317); test: pull-down; Strep-Tactin Superflow affinity chromatography of the soluble extract of E. coli co-expressing the SH subunits (50 mM KPi pH 7.0, elution with 2.5 mM desthiobiotin), then Superdex 200 HR 10/300 gel filtration; SDS-PAGE; cells harvested 36-40 h after inoculation
[2] = molecular target: T1, HoxI, diaphorase-associated subunit of the soluble [NiFe]-hydrogenase (SH) with NADPH activation site, N-terminally StrepII-tagged (Cupriavidus necator H16) (UniProt Q79IN9); test: as above
T1 sequence: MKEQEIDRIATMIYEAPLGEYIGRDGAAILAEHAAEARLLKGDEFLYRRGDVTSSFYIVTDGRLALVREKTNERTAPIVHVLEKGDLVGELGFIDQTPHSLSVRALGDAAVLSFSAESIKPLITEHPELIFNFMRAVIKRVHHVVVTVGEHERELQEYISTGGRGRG

binding [1]: binds
binding [2]: binds
Substance: HoxH, hydrogenase large subunit of the soluble [NiFe]-hydrogenase (SH) (from UniProt P22320)
